Laboratory results from US20250129170A1.
These are yes or no findings as the source states them, for the method shown. Some entries that bind do so weakly or less than the wild type.

Chains of the proteins cited; added tags and fusions are not shown. Residues count along the entry.
UniProt P32927, residues 17-443: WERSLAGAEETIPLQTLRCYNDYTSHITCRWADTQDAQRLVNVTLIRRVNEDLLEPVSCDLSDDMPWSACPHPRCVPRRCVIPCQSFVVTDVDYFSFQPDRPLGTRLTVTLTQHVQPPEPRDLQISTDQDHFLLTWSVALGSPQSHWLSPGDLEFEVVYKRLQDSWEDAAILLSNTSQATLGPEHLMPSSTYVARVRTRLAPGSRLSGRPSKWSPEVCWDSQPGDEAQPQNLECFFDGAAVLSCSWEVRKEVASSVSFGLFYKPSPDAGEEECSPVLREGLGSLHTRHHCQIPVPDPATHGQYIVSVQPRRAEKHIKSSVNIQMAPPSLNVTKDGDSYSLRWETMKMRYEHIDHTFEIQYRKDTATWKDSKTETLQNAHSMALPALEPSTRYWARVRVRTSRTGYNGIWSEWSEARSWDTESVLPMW

B1: clonotype74 (EPOR/CD131 binder, Table 8) (antibody, V domains shown)
VH: EVQLVQSGAVVKKPGESLKISCKGSGYSFSSYWIGWVRQMPGKGLEWMGIIYPGDSDTRYSPSFQGQVTISADKSISTAYLQWSSLQASDTAMYFCAKRRMTGSHSWFDPWGQGTLVTVSS
VL: SYVLTQPPSVSVAPGKTARITCEGDNIGSESVHWYQQKPGQAPVLVIYFDSDRPSGIPERFSGSNSGITATLTISRVEAGDEADFYCQVWDNGSDHVVFGGGTKLTVL
B2: clonotype273 (EPOR/CD131 binder, Table 8) (antibody, V domains shown)
VH: QVQLQESGPGLVKPSGTLSLTCAISGGSISSSNWWSWVRQPPGKGLEWIGEIYHSGSTNFNPSLKSRVTISVDKSKNQFSLHLSSVTAADTAVYYCARDVGVDGRGFDYWGQGIVVIVSS
VL: SYELTQPPSVSVSPGQTANITCSGDKLENKYTCWYQQKPGQSPLVVIYQDNKRPSGIPERFSGSNSGNTATLTISGTQAMDEADYYCQAWDSTTAWVFGGGTKLTVL
B3: clonotype231 (EPOR/CD131 binder, Table 8) (antibody, V domains shown)
VH: QVQLVESGGGVVQPGRSLRLSCEASGFTFINYGMHWVRQAPGKGLEWVAVIWYDGSNKYYADSVKGRFTISRDNSKNTLYLQMNSLRAEDTAVYYCARDRSSSSDYWGQGTLVIVSS
VL: SYELTQPSSVSVSPGQTARITCSGDVLAKKYARWFQQKPGQAPVLVIYKDSERPSGIPERFSGSSSGTTVTLTISGAQVEDEADYYCYSAADNNRVFGGGTKLTVL
B4: clonotype260 (EPOR/CD131 binder, Table 8) (antibody, V domains shown)
VH: EVQLVESGGGVVRPGGSLRLSCAASGFPFDDFGLNWVRQAPGKGLEWVSGINWNGGTTTYADSVKGRFTISRDNAKKSLYLQMSSLRVEDTALFYCVRDEIWNYYFDYWGQGTLVTVSS
VL: SYELTQPSSVSVSPGQTARITCSGDVLAKKYARWFQQKPGQAPVLVIYKDSERPSGIPERFSGSSSGTTVTLTISGAQVEDEADYYCYSAADNNRVFGGGTKLTVL
B5: clonotype239 (EPOR/CD131 binder, Table 8) (antibody, V domains shown)
VH: EVQVMESGGGLVKPGGSLRLSCAASGFSFSSHSLNWVRQAPGKGLEWVSSISGISNYIAYADSVRGRFTISRDNAKNSLFLQMNSLRAEDTGVYYCARITVVSFDYWGQGTLVTVTS
VL: QSALTQPASVSGSPGQSITISCTGTNNDVGYYNYVSWYQQHPDKAPKLMIYDVIKRPSGVSDRFSGSKSGNTASLTISGLQAEDEADYYCCSYAGSSTWVFGGGTKLSVL
B6: clonotype247 (EPOR/CD131 binder, Table 8) (antibody, V domains shown)
VH: EVQLVESGGGLVQPGGSLRLSCAASGFTFSSYDMHWVRQATGKGLEWVSAIGTAGDTYYPGSVKGRFTISRENAKNSLYLQMNSLRAGDTAVYYCARGDHSYGGLDYWGQGTLVTVSS
VL: SYELTQPPSVSVSLGQMARITCSGEALPKKYAYWYQQKPGQFPVLVIYKDSERPSGIPERFSGSSSGTIVTLTISGVQAEDEADYYCLSADSSGTYRVFGGGTKLTVL
B7: clonotype215 (EPOR/CD131 binder, Table 8) (antibody, V domains shown)
VH: EVQLVESGGGLVQPGGSLRLSCAASGFTFSSYWMHWVRQAPGKGLVWVSRINSDGSSTSYADSVKGRFTISRDNAKNTLYLQMNSLRAEDTAVYYCARIDYWGQGTLVTVSS
VL: QSALTQPASVSGSPGQSITISCTGTSSDVGGYNYVSWYQQHPGKAPKLMIYEVSNRPSGVSNRFSGSKSGNTASLTISGLQAEDEADYYCSSYTSSSTWVFGGGTKLTVL
B8: clonotype282 (EPOR/CD131 binder, Table 8) (antibody, V domains shown)
VH: EVQLVESGGGLVKPGGSLRLSCAASGFTFSSYSMNWVRQAPGKGLEWVSSISSSSSYIYYADSVKGRFTISRDNAKNSLYLQMNSLRAEDTAVYYCAREGNWGPYYFDYWGQGTLVTVSS
VL: QSALTQPASVSGSPGQSITISCTGTSSDVGGYNYVSWYQQHPGKAPKLMIYDVSKRPSGVSNRFSGSKSGNTASLTISGLQAEDEADYYCCSYAGSSTVVFGGGTKLTVL
B9: clonotype229 (EPOR/CD131 binder, Table 8) (antibody, V domains shown)
VH: VVQLVESGGGLVQPGGSLRLSCAASGFTFSRYWMSWVRQAPGKGLEWVANINQDGSEEYYVDSVKGRFTISRDNAKSSLSLQMNSLRAEDTALYYCATDLNWNGYWGQGTLVTVSS
VL: QSALTQPASVSGSPGQSITISCTGTSSDVGGYDYVSWYQQHPGKAPKFMISGVSNRPSGVSNRFSGSKSGNTASLTISGLQAEDEADYYCSSYTRSRTWVFGGGTKLTVL
B10: clonotype226 (EPOR/CD131 binder, Table 8) (antibody, V domains shown)
VH: EVQLVESGGGLVQPGGSLRLSCAASGFTFSTYAMNWVRQAPGKGLEWVSAISGGGGSTYYADSVKGRFTISRDNSKNTLYLQMNSLRAEDTAVYYCAKRVFFDYWGQGTLVTVSS
VL: QSALTQPASVSGSPGQSITISCTGTSSDVGGYNYVSWYQQHPGKAPKLMIYEVSNRPSGVSNRFSGSKSGNTASLTISGLQAEDEADYSCSSYTISSTWVFGGGTKLTVL
B11: clonotype233 (EPOR/CD131 binder, Table 8) (antibody, V domains shown)
VH: EVQLVESGGGLVQPGRSLRLSCAASGFTFDDYAMHWVRQAPGKGLEWVSGISWNSGSIGYADSVKGRFTISRDNAKNSLYLQMNSLRAEDTALYYCAKDSGYSPDYWGQGTLVTVSS
VL: SYELTQPPSVSVSPGQTARITCSGDALPKKYAYWYQQKSGQAPVLVIYEDSKRPSGIPERFSGSSSGTMATLTISGAQVEDEADYYCYSTDSSGKGVFGGGTKLTVL
B12: clonotype289 (EPOR/CD131 binder, Table 8) (antibody, V domains shown)
VH: EVHLVESGGGLVQPGGSLRLSCAASGFTFSGYWMSWVRQAPGKGLEWVANIKQDGSDKYYVDSVKGRFTISRDNAINSLFLQLTSLRAEDTAVYYCAREIDWNYGFHFDYWGQGTLITVSS
VL: SYELTQPPSVSVSPGQTARITCSGDALPQKYAFWYQQKSGQAPVLVIYEDSERPSGIPERFSGSTSGTMATLTISGAQVEDEADYYCFSTDSSGNKVFGGGTKLTVL
B13: clonotype274 (EPOR/CD131 binder, Table 8) (antibody, V domains shown)
VH: EVQLVESGGGLVQPGGSLRLSCGVSGFTFSIYWMSWVRQAPGKGLEWVANINLDGSEKYHVDSVKGRFTISRDNAKNSLFLQMTSLRAEDTAVYYCARDILWSGGYLDVWGKGTTVTVSS
VL: SSELTQDPAVSVALGQTVRITCQGDNIRNYYASWYQQKPGQAPLLVISGKNNRPSGIPDRFSGSSSGNTASLTITGAQAEDEAYYYCYSRDSSGSLWIFGGGTKLTVL
B14: clonotype272 (EPOR/CD131 binder, Table 8) (antibody, V domains shown)
VH: EVQLVESGGGLVQPGGSLRLSCAASGFTFNRYNMNWVRQAPGKGLEWVSYISSSSDTIYYADSVKGRFTISRDNAKNSLYLQMNSLRDEDTAMYYCARECYSSSWAFDYWGQGTLVTVSS
VL: SSELTQDPAVSVALGQTVRITCQGDSLRSYYASWYQQKPGQAPVLVIYGKNNRPSGILDRFSGSSSGNTASLTITGAQAEDEGDYYCNSRDSSGWVFGGGTKLTVL
B15: clonotype230 (EPOR/CD131 binder, Table 8) (antibody, V domains shown)
VH: EVQLVESGGGLVQPGGSLRLSCAASGFTFSRCDMYWVRQATGKGLEWVSAIGAAGDTYYPGSVKGRFTISRENAKNSLYLQMNSLRAGDTAVYYCATGYNWNPDYWGQGTLVTVSS
VL: QAVLTQPASLSASPGASASLTCTLRSGINVGTYRIYWYQQKPGSPPQYLLRYKSDSDKQQGSGVPSRFSGSKDASANAGILLISGLQSEDEADYYCMIWHSSASVFGGGTKLTVL
B16: clonotype235 (EPOR/CD131 binder, Table 8) (antibody, V domains shown)
VH: QVQVVQSGAEVRKSGASVKVSCKASGYTFTSYYIHWVRQVPGQGLEWMGLINPSGGSTIYAQKFQGRVTMTRDTSTSSVYMELSSLRSEDTAAYYCARGGWGTMDVWGKGTTVTVSS
VL: SSELTQDPAVSVALGQTVRITCQGDSLRSYYASWYQQKPGQAPVLVIYGKNNRPSGIPDRFSGSSSGNTASLTITGAQAEDEADYYCNSRDSSGNHYVFGTGTKVTVL
B17: clonotype236 (EPOR/CD131 binder, Table 8) (antibody, V domains shown)
VH: EVQLVESGGGLVQPGGSLRLSCAASGFTFSSYDMHWVRQATGKGLEWVSAIGTAGDTYYPGSVKGRFTISRENAKNSLYLQMNSLRAGDTAVYYCARAWELDAFDIWGQGTMVTVSS
VL: SSELTQDPAVSVALGQTVRITCQGDSLRSYYASWYQQKPGQAPVLVIYGKNNRPSGIPDRFSGSSSGNTASLTITGAQAEDEADYYCNSRDSSGNHVVFGGGTKLTVL
B18: clonotype246 (EPOR/CD131 binder, Table 8) (antibody, V domains shown)
VH: EVQLVESGGGLVQPGGSLRLSCAASGFTFSSYSMNWVRQAPGKGLEWVSYISSSSSTIYYADSVKGRFTISRDNAKNSLYLQMNSPRDEDTAVYYCARESIAALFDYWGQGTLVTVSS
VL: SSELTQDPAVSVALGQTVRITCQGDSLRSYYASWYQQKPGQAPVLVIYGKNNRPSGIPDRFSGSSSGNTASLTITGAQAEDEADYYCNSRDSSGNHLVFGGGTKLTVL
B19: clonotype276 (EPOR/CD131 binder, Table 8) (antibody, V domains shown)
VH: QVQLVQSGAEVKKPGASVKVSCKASGYTFTTYGISWVRQAPGQGLEWMGWISAFNGNTNYAQNLQGRVTMTTDTSTSTAYMELRSLRSDDTAVYYCARENNWNYGWFDPWGQGTLVTVSS
VL: SSELTQDPAVSVALGQTVRITCQGDSLRSYYASWYQQKPGQAPVLVIYGKNNRPSGIPDRFSGSSSGNTASLTITGAQAEDEADYYCNSRDSSGNHYVFGTGTKVTVL
B20: clonotype275 (EPOR/CD131 binder, Table 8) (antibody, V domains shown)
VH: EVQLVESGGGLVQPGGSLRLSCAASGFTFSGYWMTWVRQAPGKGLEWVANIKHDGSEKYYVDSVKGRFTISRDNAQNSLYLQMNSLRAEDTAVYYCARKQLWLNWYFDFWGRGILVTVSS
VL: SSELTQDPAVSVALGQTVRITCQGDSLRRYYASWYQQKPGQAPVLVIYGKDNRPSGIPDRFSGSSSGNTASLTITGTQAEDEADYYCNSRDSSGNHLVFGGGTKLTVL
B21: clonotype264 (EPOR/CD131 binder, Table 8) (antibody, V domains shown)
VH: EVQLVESGGGLVQPGGSLRLSCAASGFTFSSYWMHWVRQAPGKGLVWVSRINSDGSSTSYADSVKGRFTISRDNAKNTLYLQMNSLRAEDTAVYYCARVGWGGHAFDIWGQGTMVTVSS
VL: SSELTQDPAVSVALGQTVRITCQGDSLRSYYASWYQQKPGQAPVLVIYGKNNRPSGIPDRFSGSSSGNTASLTITGAQAEDEADYYCNSRDSSGNHVVFGGGTKLTVL

biological target: hCD131-Fc (IME021, inhouse) (human) (UniProt P32927); assay: B-cell sorting, labelled hEPOR-Fc and hCD131-Fc

binding, binds:
B1
B2
B3
B4
B5
B6
B7
B8
B9
B10
B11
B12
B13
B14
B15
B16
B17
B18
B19
B20
B21
